The target of experiment [1] is T1, endogenous human iRhom2 (human, UniProt Q6PJF5 1-856).
T1 sequence: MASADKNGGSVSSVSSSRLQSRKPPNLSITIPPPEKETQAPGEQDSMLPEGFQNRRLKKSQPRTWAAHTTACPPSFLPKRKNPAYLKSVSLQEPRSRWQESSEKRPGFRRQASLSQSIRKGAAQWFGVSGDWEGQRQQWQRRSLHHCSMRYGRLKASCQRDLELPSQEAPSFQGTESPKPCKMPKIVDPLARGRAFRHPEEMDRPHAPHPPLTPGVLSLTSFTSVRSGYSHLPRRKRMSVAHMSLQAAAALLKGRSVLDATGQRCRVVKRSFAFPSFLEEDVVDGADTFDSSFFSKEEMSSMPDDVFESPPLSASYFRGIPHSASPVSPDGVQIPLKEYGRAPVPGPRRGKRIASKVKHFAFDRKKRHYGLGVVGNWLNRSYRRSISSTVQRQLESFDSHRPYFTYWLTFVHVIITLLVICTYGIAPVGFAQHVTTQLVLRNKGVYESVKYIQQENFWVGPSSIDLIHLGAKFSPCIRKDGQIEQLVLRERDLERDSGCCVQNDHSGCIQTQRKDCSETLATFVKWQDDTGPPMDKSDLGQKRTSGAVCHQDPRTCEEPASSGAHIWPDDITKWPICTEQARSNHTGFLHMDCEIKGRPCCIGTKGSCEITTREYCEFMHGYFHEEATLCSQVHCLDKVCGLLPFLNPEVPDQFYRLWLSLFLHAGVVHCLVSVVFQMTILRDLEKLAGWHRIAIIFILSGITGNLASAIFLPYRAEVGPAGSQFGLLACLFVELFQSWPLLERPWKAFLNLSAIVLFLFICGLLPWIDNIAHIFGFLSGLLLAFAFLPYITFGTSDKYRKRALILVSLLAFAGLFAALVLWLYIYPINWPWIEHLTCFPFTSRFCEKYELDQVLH
Nature of the experiment: FACS on RPMI-8226 and THP-1 cells, 3 µg/ml.

Experiment [2] deals with T1, endogenous human iRhom2. Nature of the experiment: FACS on RPMI-8226 and THP-1 cells.

These are yes or no findings as the source states them, for the method shown. Some results given as binding are weak or reduced against the parent protein; the word gives no strength.

Experimental findings from patent US20240166767A1 (SCIRHOM, published 2024) are described below.

B1: humanized antibody 42-B-02 (antibody, V domains shown)
VH: QVTLRESGPALVKPTQTLTLTCTFSGFSLSTFGRGVGWIRQPPGKALEWLAHIWWDDEKYYNSALKSRLTISKDTSKNQVVLTITNMDPVDTATYYCARIQNYGSNYWYFDVWGQGTLVTVSS
VL: AIQLTQSPSSLSASVGDRVTITCRASSRISYMFWYQQKPGKAPKVLIYDTSNLASGVPSRFSGSGSGTDYTLTISSLQPEDFATYYCQQWNSYPLTFGQGTKLEIK
notes: Tested as whole humanized antibody from transient expression of heavy chain/kappa light chain pairs in CHO cells, detected with anti-human IgG; the general methods speak of human IgG1/Kappa; also called clone 42-B-02
Consider B1, for which the binding result with endogenous human iRhom2 [1] and in the experiment with endogenous human iRhom2 [2] was “binds” throughout.
